# Results published in US11155616B2, “Drug regulated transgene expression” (Seattle Children's Hospital, priority 2014, dated 2021).
# For at least one compound, name, drawing or mass did not settle the structure.
# Tests used:
# TamR-tf (HEA3) [1] = assay: Inducible CD19CAR/Her2t expression in Jurkat cells transduced with TamR CD19CAR LV containing DHFRdm (flow cytometry and western blot); assay type: cell-based, human; settings: construct with DHFRdm (FIG. 7B)
# Protocol: Construction of TamR CD19CAR LV was done through dual packaging of constructs A and B. Construct A contains HEA3 linked via a ribosomal cleavage sequence, T2A, to the tracking and selection marker EGFRt.
# Cells were transduced with TamR CD19CAR LV at a MOI of 1, expanded in culture, selected for EGFRt via magnetic bead selection. Following further expansion cells were treated with […] alone (EtOH) or 500 nM 4OHT, and harvested for flow cytometry, (upper panel). FIG. 7. Samples were stained with EGFRt-APC antibody and Herceptin-biotin, followed by SA-PE. Parental (untransduced Jurkat) is shown for comparison. Samples were also prepared for western blot, the primary antibody used is an anti-CD247 mouse mAb which recognizes the intracellular CD3 zeta chain on the CD19CAR (˜48 kDa). The endogenous CD3 zeta migrates at ˜23 kDa.
# TamR-tf (HEA3) [2] = assay: Inducible CD19CAR/Her2t expression in Jurkat cells transduced with TamR-CD19CAR LV (flow cytometry and western blot); assay type: cell-based, human; settings: construct without DHFRdm (FIG. 6B)
# Text: Construction of the vector was accomplished by dual packaging of transfer plasmids housing constructs as described above at a plasmid molar ratio of 1:1. (See FIGS. 6C and 7C) Construct A under the constitutive EF-lalpha promoter encodes TamR-tf (HEA3) linked via a ribosomal cleavage sequence, T2A, to the tracking and selection marker EGFRt. (See FIGS. 9A, 9B and 9C; SEQ ID NO: 39, Table 1: SEQ ID NO: 8 and SEQ ID NO: 9) Construct B contains the 7xHBD/mE1b promoter with downstream transgene cDNA including CD19CAR linked via 2a cleavage sequence to Her2t, a tracking and selection marker. (See Table 12; SEQ ID NO: 41; Table 2 SEQ ID NO: 10; FIG. 11; SEQ ID NO: 44). Another construct was prepared adding an additional selective marker DHFRdm (See FIG. 12; SEQ ID NO: 46).
# Human Jurkat cells were transduced at a MOI of 2, then were expanded in culture, and selected for EGFRt+ cells via magnetic bead selection. After further expansion, cells were either treated with vehicle alone (EtOH) or 500 nM 4OHT, and harvested for flow cytometry. Samples were stained with EGFRt-APC antibody and Herceptin-biotin, followed by SA PE. Samples were also prepared for western blot, the primary antibody used is an anti-CD247 mouse mAb which recognizes the intracellular CD3 zeta chain on the CD19CAR (˜48 kDa). The endogenous CD3 zeta migrates at ˜23 kDa.
compound,measurement,setting,value
"CC/C(=C(\c1ccc(O)cc1)c1ccc(OCCN(C)C)cc1)c1ccccc1 [4-OHT, 4-hydroxytamoxifen]",CD19 CAR CD3 zeta chain (about 48 kDa) in western blot with anti-CD247,TamR-tf (HEA3) [1],only detected in transduced Jurkat cells exposed to 4-OHT
same,CD19 CAR CD3 zeta chain (about 48 kDa) in western blot with anti-CD247,TamR-tf (HEA3) [2],only detected in transduced Jurkat cells exposed to 4-OHT
